# Hit rate of the full screen: of about 94,000 compounds, about 280 (0.3%) were called active. Inconclusive results, whose numbers are uncertain, are shown with a selection of clear calls.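 Rule for the calls: active = activation above 40%, about the mean plus 3 SD, also judged a hit on visual image review; inconclusive = activation above 40% but not a hit on visual review; inactive = activation not above 40% and no visual hit.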
# Test: enhancers of NFkB p65 translocation in HUVEC – imaging, IL-1B stimulus, high-content imaging, primary screen (AID 819);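 note: percent activation is computed from the nuclear over cytoplasmic p65 intensity ratio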
# Settings: HUVEC IL-1B NFkB p65 nuclear translocation imaging; at 2 µM; hits give high values
row,Structure (SMILES),activation
1,O=C(NCc1ccc(F)cc1)C(c1cccs1)N(C(=O)c1csnn1)C1CC1 (stereo unspecified),inconclusive: 83.3%
2,COc1ccc(NC(=O)CCNC(=O)Cn2ccc3ccccc3c2=O)c(OC)c1,active: 49.9%
3,Cc1ccc(-n2cnc3scc(-c4cccs4)c3c2=O)cc1,inactive: 3.14%
4,CCOC(=O)c1ccccc1NC(=O)c1ccccc1SC,inconclusive: 42.6%
5,O=C1CC(c2cccc(Br)c2)c2cc3c(cc2N1)CCC3 (stereo unspecified),inconclusive: 99.1%
6,Cc1c(NC(=O)c2cnn3c2NC(c2ccc(Br)cc2)CC3C(F)(F)F)c(=O)n(-c2ccccc2)n1C (stereo unspecified),inactive: 1.24%
7,CCOC(=O)c1nnn(-c2nonc2N)c1-c1ccccc1,active: 42.3%
8,CC(=O)c1coc2ccc(OCCN3CCCCC3)cc12,active: 43%
9,O=C(CSc1cc(Cl)ccc1Cl)NCC1CCCO1 (stereo unspecified),inconclusive: 51.2%
10,Clc1ccccc1CSc1snnc1-c1ccccc1,inactive: -7.49%
11,C=CCn1c(Br)nc2c1c(=O)n(C)c(=O)n2C,active: 49.4%
12,O=c1c2cccc3c2c(nn1CN1CCOCC1)-c1ccccc1-3,inactive: 13.9%
13,O=C(c1ccccc1)c1ccc(OCC(O)CN2CCOCC2)cc1 (stereo unspecified),inconclusive: 51.8%
14,Cc1ccc(-c2nn3c(C)nnc3s2)cc1NC(=O)CSc1ccc(Cl)cc1,active: 63.3%
15,CN(Cc1ccccc1)C(=O)c1ccccc1NC(=O)c1ccco1,active: 42.3%
16,Cc1nn(-c2ccccc2)c(C)c1C(=O)OCC(=O)N1CC(=O)Nc2ccccc21,inactive: 21.1%
17,C=CCOC(=O)C1=C(C)NC(C)=C(C(=O)OCC=C)C1c1cccs1,inconclusive: 47.5%
18,CCOC(=O)/C=C1\SCC(=O)N1CC(=O)c1ccc[nH]1,inconclusive: 53.6%
19,Cc1ccccc1Cn1nc(C)c(NC(=O)c2cc(-c3cccs3)on2)c1C,inactive: -3.3%
20,COC(=O)CSc1nnc(-c2ccc(S(=O)(=O)NCc3cccs3)cc2)o1,active: 44.6%
21,CCOC(=O)c1[nH]c2cc3c(cc2c1NC(=O)CN1CCC(C)CC1)OCO3,inactive: -97.9%
22,CCn1cc(C(=O)NCc2ccc(C)o2)c2cc(OC)c(OC)cc2c1=O,inconclusive: 42.9%
23,CC1=Nc2ccccc2/C1=C\c1nc(-c2ccccc2)oc1O,inactive: 0.39%
24,CCOC(=O)c1c(NC(=S)NC(=O)c2ccco2)sc2c1CCCC2,active: 53.7%

row,Structure (SMILES),activation
1,CCOc1ccc(S(=O)(=O)n2c(C)nc3ccccc32)cc1,inconclusive: 62%
2,O=C(O)c1ccnc(C(=O)O)c1,inconclusive: 48.8%
3,CNC(=O)Nc1cccc(C(F)(F)F)c1,inactive: 14%
4,Cc1cc(C)cc(N2CC(C(=O)O)CC2=O)c1 (stereo unspecified),inconclusive: 55.2%
5,COc1cc2c(cc1OC)C(c1cc3cc(OC)c(OC)cc3[nH]c1=O)N(C(=O)C1CC1)CC2 (stereo unspecified),active: 44.9%
6,CCC1C(=O)Nc2nc(-c3ccccc3)c(-c3ccccc3)n2N=C1C (stereo unspecified),active: 120%
7,CCCCN(CC)S(=O)(=O)c1ccccc1,inconclusive: 50.5%
8,CN1C(=O)CSC1=NC12CC3CC(CC(C3)C1)C2,active: 40%
9,O=C(NCC1OCCc2ccccc21)c1ccco1 (stereo unspecified),active: 53.3%
10,O=C(CN1CCN(S(=O)(=O)c2ccc(F)cc2)CC1)Nc1ccc2c(c1)OCCO2,inconclusive: 52%
11,CCCCCOc1ccc(NC(=O)CCCC(=O)O)cc1,inconclusive: 72.1%
12,Cc1cc2c(c(=O)n1CCCn1ccnc1)C(c1ccco1)C(C#N)=C(N)O2 (stereo unspecified),inactive: 30.2%
13,Cc1ccc(C(=O)Nc2ccc(O)cc2C(=O)O)cc1C,active: 119%
14,CC(C)(C)C(=O)NC1CCN(S(C)(=O)=O)CC1,inconclusive: 50.3%
15,O=C(N[C@@H](Cc1ccccc1)C(=O)NC1CCCCCC1)c1ccco1,inconclusive: 48.4%
16,COc1cc(NC(=O)c2ccco2)c(OC)cc1NC(=O)Nc1ccc(Cl)cc1,inconclusive: 50.2%
17,COC(=O)c1ccc(Cl)c(NC(=O)c2ccc(-c3ccccc3)cc2)c1,inactive: -7.41%
18,O=C(Nc1nnc(-c2ccccc2F)s1)C1CCCO1 (stereo unspecified),inconclusive: 41.5%
19,CCCC(=O)NC(Nc1ccccc1F)C(Cl)(Cl)Cl (stereo unspecified),inconclusive: 81.6%
20,COc1ccc2c(c1)C(NC(C)=O)C(=O)N2C (stereo unspecified),inconclusive: 42.4%
21,Cc1ccc(SCC(=O)Nc2ncc(C)s2)cc1,inconclusive: 75.7%
22,Cc1cc(C)nc(-n2nc(C)cc2NC(=O)COC(=O)CCC(=O)c2cccs2)n1,inconclusive: 74.5%
23,Nn1c(SC/C=C/c2ccccc2)nnc1-c1cccnc1,inactive: 24.8%
24,O=C(c1cccn2c(=O)c3ccccc3nc12)N1CCN(Cc2ccc3c(c2)OCO3)CC1,inconclusive: 44.3%

row,Structure (SMILES),activation
1,CCN(c1ccc(C)c(C)c1)S(=O)(=O)c1ccc2c(c1)CCN2C(=O)CCC(=O)O,active: 53.7%
2,CCOC(=O)c1sc(-c2ccccc2)cc1N,inconclusive: 43.3%
3,Cc1ccccc1CS(=O)(=O)Cc1ccc(C(=O)N2CCOCC2)o1,inconclusive: 42.4%
4,CC(C)(C)Cc1nnc(NC(=O)c2cc(-c3ccccc3)nc3ccccc23)s1,active: 41.2%
5,Oc1ccc(CN2CCN(c3ccccc3)CC2)c2cccnc12,inconclusive: 50.6%
6,CCOC(=O)c1oc2cccc(O)c2c1CN1CCOCC1,inactive: 2.12%
7,CN(Cc1ccccc1)S(=O)(=O)c1ccc(S(=O)(=O)N2CCN(CCC#N)CC2)cc1,inconclusive: 61.8%
8,COC(=O)c1cn(CC(=O)NC2CCCCC2)c2ccccc12,inconclusive: 54.3%
9,O=c1c2[nH]c3ccccc3c2ncn1Cc1cccnc1,active: 50.1%
10,CCOc1ccc(C(=O)OCCN(C)C)cc1,active: 58.3%
11,CC(NC(=O)NC(N)=O)(C(F)(F)F)C(F)(F)F,active: 40.9%
12,Cc1ccc(NCc2nnc(SCC(=O)c3ccccc3)o2)c(C)c1,inconclusive: 63.8%
13,CCCNC(=O)CC1Sc2ccccc2NC1=O (stereo unspecified),active: 43.3%
14,Cc1ccccc1NC(=O)CN(c1ccc(F)cc1)S(C)(=O)=O,inactive: 23.2%
15,C=C(C)CSc1nc2c(cc1C#N)CCC2,inconclusive: 59.2%
16,CN1CCN(C2=C(Cl)C(=O)N(c3ccc(Cl)c(Cl)c3)C2=O)CC1,inconclusive: 50.5%
17,COc1ccc(OC)c(-c2nc3c(C)n[nH]c(=O)c3[nH]2)c1,inconclusive: 47.6%
18,O=C(CSc1nnnn1C1CCCC1)Nc1ccc2c(c1)OCCO2,inconclusive: 42.7%
19,Cc1nnc(SCc2cc(=O)[nH]c(Nc3nc(C)c4ccccc4n3)n2)s1,inactive: -1.16%
20,CCOC(=O)N1CCN(C(=O)c2cccc(-n3c(=S)[nH]c4cc(Cl)ccc4c3=O)c2)CC1,inconclusive: 44.1%
21,COc1ccc(S(=O)(=O)Nc2cc(C)nn2-c2ccccc2)cc1,inactive: -1.93%
22,Cn1c(=O)c(NCCc2ccccc2)c2c3c(cccc31)C(=O)c1ccccc1-2,inactive: 17.2%
23,NC(=O)COC(=O)CNC(=O)c1ccc(Cl)cc1,inconclusive: 60.9%
24,CCN(CC)Cc1c(O)ccc2c([N+](=O)[O-])c(C)n(-c3ccc(OC)cc3)c12,inconclusive: 50.2%

row,Structure (SMILES),activation
1,COc1ccc(CCNC2CC(C)N(C)CC2C)cc1OC (stereo unspecified),inconclusive: 53.2%
2,COC(=O)C1=C(C)NC(=O)NC1c1ccsc1 (stereo unspecified),inconclusive: 86.2%
3,CC(C)(C)NC(=O)C(c1ccccn1)N(C(=O)C1CSC(=O)C1)c1ccc(F)cc1 (stereo unspecified),inactive: -19.9%
4,COc1ccc(OC)c(C2C(C(=O)Nc3cccnc3)=C(C)NC3=C2C(=O)CCC3)c1 (stereo unspecified),active: 42.1%
5,Cc1csc(SCC(=O)Nc2ccccn2)n1,inconclusive: 46.4%
6,CCCNC1=C(C)C(=O)CC1,inconclusive: 42%
7,CCCCNC(=O)CCn1nc(-c2ccccc2)ccc1=O,active: 52.8%
8,O=C(Cn1cnc2ccccc21)NCCCN1CCOCC1,inconclusive: 52.8%
9,O=C(NCc1ccccc1)c1c(O)c2cccc3c2n(c1=O)CCC3,inconclusive: 50.8%
10,Cc1ccc(NCc2nnc(SCC(=O)Nc3ccccc3)n2CC2CCCO2)c(C)c1 (stereo unspecified),inconclusive: 84.9%
11,O=C(NC1CCCCC1)N1CCCCCC1,inconclusive: 43.5%
12,O=C(Nc1nc2ccccc2s1)C1CC(=O)N(c2ccc(F)cc2)C1 (stereo unspecified),inactive: 7.73%
13,CC(=O)c1c(C)[nH]c(C(=O)OCc2nnc(-c3ccccc3)o2)c1C,inconclusive: 41.8%
14,O=C(NCCC1=CCCCC1)C(c1ccccc1)c1ccccc1,inactive: 7.73%
15,COc1ccc(NC(=O)CCSc2nnc(C)s2)cc1,inactive: 25%
16,CC1CCc2cc(F)ccc2N1C(=O)CCC(=O)O (stereo unspecified),inconclusive: 42.9%
17,Fc1ccc(C(CCCn2nnc(-c3cccnc3)n2)c2ccc(F)cc2)cc1,inactive: -8.33%
18,CCCCC(c1nnnn1CS(=O)(=O)c1ccc(C)cc1)N1CCN(c2ccccc2)CC1 (stereo unspecified),inconclusive: 40.9%
19,CCN(CC)CCCn1c(C)cc2c(c1=O)C(c1ccc(OC)c(OC)c1OC)C(C#N)=C(N)O2 (stereo unspecified),inconclusive: 40.4%
20,Cc1nc2sc(C(c3cccc(F)c3)N3CC(C)OC(C)C3)c(O)n2n1 (stereo unspecified),inactive: 6.91%
21,O=C(Nc1ccccc1C(=O)O)c1ccc(Cl)c(S(=O)(=O)N2CCOCC2)c1,inconclusive: 45.6%
22,O=c1[nH]c2ccccc2n1Cc1ccccc1,inactive: -4.49%
23,CC1(C)CCc2nc(SCc3ccccc3)c(C#N)cc2C1,inconclusive: 41.6%
24,COC(=O)c1ccc(CSc2nnc3ccccn23)o1,active: 152%

# Taken from the results shown, three compounds:
row,Structure (SMILES),activation
19,CCN(CC)CCCn1c(C)cc2c(c1=O)C(c1ccc(OC)c(OC)c1OC)C(C#N)=C(N)O2 (stereo unspecified),inconclusive: 40.4%
20,Cc1nc2sc(C(c3cccc(F)c3)N3CC(C)OC(C)C3)c(O)n2n1 (stereo unspecified),inactive: 6.91%
21,O=C(Nc1ccccc1C(=O)O)c1ccc(Cl)c(S(=O)(=O)N2CCOCC2)c1,inconclusive: 45.6%
